Assay results: the supplement of paper PMC10849652
This is one part of the list.

Chains of the proteins cited; added tags and fusions are not shown. Lines headed by an entry give the natural chain unless they say otherwise; changes in a name come on top.
UniProt Q8WUR7: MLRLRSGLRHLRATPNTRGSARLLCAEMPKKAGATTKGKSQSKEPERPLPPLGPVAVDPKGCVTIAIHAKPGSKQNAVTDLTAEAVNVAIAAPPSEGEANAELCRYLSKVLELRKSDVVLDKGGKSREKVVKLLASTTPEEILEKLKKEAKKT
UniProt Q96GQ5: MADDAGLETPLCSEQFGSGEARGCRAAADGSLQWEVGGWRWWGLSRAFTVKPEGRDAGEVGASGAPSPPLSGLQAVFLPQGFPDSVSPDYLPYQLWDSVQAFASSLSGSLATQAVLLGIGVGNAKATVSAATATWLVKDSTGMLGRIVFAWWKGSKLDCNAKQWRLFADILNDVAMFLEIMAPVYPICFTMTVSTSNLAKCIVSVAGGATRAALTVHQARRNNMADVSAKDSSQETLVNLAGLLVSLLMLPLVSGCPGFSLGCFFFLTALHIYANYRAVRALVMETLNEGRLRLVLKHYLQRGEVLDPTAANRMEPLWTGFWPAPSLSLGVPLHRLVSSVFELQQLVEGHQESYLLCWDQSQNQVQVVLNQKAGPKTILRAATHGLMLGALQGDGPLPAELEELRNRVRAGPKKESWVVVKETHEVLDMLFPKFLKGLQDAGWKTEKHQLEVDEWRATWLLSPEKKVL
UniProt Q9H3J6: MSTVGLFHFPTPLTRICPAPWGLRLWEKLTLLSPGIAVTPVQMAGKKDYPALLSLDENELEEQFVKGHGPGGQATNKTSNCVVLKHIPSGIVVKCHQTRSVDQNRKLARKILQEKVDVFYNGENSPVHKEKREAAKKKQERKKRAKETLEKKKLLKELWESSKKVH
UniProt P00915: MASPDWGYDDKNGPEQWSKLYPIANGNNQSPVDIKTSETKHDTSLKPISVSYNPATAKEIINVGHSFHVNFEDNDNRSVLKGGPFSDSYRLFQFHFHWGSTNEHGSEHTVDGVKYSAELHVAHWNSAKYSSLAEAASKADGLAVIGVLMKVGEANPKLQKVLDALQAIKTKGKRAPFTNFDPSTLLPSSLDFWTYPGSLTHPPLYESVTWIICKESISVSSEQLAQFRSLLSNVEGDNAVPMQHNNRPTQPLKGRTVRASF
UniProt Q96RR4, whole entry, looked up: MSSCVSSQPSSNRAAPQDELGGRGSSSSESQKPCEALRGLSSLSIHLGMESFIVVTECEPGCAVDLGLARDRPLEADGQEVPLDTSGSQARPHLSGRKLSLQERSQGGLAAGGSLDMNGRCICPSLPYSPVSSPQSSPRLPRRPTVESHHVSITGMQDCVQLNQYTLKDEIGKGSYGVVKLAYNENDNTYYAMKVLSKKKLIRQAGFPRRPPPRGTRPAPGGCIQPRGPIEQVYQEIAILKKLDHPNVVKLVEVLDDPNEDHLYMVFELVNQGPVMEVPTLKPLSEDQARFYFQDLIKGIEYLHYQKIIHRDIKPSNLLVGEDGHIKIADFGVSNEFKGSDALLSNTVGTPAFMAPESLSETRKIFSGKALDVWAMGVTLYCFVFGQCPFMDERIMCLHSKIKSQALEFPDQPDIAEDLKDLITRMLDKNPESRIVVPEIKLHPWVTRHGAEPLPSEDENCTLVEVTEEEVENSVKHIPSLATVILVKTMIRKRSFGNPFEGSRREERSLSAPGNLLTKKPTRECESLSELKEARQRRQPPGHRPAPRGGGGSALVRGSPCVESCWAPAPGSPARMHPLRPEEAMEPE
UniProt Q9H8G2: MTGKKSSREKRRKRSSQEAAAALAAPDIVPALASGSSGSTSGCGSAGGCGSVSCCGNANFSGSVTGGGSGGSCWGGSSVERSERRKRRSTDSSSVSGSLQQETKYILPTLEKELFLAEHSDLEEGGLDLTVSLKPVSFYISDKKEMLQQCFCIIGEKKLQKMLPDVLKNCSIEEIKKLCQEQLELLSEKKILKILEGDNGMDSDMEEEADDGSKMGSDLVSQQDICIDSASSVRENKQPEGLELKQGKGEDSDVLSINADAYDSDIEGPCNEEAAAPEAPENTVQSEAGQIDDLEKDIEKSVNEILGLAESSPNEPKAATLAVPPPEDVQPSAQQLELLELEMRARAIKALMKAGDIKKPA
UniProt O43852: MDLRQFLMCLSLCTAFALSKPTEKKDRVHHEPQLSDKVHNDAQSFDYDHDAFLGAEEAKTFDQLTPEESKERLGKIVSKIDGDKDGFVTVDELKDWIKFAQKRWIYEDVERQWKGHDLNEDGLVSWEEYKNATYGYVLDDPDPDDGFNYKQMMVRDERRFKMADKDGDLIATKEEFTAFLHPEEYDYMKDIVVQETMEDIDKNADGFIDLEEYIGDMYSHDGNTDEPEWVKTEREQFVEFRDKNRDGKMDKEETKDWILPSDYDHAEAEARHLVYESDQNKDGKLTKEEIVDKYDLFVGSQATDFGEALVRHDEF
UniProt O43683: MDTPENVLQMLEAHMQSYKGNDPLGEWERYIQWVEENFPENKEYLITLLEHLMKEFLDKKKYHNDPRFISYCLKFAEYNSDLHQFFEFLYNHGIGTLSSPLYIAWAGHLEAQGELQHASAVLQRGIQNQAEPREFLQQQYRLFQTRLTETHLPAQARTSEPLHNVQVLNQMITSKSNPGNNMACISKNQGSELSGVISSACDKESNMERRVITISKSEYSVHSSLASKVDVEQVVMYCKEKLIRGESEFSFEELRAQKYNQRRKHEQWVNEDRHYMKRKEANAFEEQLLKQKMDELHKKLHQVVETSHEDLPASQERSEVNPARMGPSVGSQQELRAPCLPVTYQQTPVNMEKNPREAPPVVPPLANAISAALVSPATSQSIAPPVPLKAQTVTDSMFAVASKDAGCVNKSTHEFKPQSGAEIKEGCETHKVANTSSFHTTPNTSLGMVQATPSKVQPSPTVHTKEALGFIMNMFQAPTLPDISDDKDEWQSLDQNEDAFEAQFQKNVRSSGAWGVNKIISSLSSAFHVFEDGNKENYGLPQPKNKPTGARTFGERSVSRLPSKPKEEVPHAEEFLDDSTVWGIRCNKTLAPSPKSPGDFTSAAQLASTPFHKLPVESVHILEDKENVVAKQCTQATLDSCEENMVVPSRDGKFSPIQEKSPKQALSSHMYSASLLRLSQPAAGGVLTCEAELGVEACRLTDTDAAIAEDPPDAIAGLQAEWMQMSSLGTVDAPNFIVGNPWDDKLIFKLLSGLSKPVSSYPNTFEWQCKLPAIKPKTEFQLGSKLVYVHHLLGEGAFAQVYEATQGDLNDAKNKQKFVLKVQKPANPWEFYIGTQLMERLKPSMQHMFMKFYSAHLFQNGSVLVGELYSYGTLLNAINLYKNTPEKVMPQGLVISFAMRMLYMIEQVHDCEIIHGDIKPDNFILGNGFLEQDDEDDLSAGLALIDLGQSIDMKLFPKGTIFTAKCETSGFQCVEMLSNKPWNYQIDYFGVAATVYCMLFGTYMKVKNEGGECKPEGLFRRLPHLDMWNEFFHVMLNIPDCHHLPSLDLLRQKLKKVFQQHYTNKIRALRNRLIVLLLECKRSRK
UniProt Q9HB71, whole entry, looked up: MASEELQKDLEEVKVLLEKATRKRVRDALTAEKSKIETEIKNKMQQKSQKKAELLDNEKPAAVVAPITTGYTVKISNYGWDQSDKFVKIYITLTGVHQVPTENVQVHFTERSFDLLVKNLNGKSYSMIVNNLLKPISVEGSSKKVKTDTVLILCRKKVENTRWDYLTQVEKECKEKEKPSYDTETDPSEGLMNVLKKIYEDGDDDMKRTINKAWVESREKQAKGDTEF
UniProt Q13555: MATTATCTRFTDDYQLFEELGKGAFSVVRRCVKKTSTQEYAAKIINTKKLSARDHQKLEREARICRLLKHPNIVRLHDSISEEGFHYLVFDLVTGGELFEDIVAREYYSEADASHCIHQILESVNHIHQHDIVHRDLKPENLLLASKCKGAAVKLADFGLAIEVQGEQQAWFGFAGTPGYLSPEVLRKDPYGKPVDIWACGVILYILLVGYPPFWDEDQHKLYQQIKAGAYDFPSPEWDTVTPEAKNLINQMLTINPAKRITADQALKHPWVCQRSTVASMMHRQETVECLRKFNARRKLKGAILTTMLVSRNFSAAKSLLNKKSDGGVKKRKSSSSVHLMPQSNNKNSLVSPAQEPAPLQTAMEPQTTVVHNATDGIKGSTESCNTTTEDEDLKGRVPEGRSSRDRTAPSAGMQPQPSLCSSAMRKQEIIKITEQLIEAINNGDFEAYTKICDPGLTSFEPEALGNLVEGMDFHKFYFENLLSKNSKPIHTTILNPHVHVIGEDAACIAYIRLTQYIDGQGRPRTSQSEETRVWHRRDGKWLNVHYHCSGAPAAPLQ
UniProt P07384: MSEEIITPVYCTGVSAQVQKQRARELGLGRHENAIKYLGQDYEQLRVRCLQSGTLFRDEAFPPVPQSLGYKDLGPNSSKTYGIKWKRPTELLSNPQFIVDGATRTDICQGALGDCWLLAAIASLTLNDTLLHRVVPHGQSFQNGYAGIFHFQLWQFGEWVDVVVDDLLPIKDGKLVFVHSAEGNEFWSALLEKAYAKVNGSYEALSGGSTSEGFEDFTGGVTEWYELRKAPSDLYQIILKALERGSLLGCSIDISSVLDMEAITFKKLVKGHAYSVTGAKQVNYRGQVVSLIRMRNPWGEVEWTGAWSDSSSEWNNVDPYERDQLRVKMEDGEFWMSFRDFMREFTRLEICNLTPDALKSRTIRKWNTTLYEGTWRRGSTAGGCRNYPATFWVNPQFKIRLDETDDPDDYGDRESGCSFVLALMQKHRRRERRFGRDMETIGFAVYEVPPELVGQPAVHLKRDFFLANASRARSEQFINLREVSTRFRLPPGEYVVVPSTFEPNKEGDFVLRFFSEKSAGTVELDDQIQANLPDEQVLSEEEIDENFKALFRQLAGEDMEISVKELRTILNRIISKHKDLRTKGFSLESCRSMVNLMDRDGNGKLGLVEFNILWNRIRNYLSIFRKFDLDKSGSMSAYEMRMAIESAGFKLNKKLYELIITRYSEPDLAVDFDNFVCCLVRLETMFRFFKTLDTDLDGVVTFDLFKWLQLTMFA
UniProt Q3KRA6: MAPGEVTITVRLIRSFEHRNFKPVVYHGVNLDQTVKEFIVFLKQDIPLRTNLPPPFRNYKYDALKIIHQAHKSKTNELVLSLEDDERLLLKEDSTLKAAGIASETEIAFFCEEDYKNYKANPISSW
UniProt Q9H425: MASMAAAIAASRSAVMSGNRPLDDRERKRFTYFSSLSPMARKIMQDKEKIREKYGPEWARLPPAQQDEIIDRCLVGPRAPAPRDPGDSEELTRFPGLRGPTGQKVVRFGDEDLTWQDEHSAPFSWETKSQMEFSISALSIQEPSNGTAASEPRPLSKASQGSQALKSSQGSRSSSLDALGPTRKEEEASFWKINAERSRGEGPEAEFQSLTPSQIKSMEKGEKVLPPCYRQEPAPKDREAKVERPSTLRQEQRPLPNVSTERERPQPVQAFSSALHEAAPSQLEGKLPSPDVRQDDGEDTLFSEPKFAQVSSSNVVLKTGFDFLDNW
UniProt Q9BXL7: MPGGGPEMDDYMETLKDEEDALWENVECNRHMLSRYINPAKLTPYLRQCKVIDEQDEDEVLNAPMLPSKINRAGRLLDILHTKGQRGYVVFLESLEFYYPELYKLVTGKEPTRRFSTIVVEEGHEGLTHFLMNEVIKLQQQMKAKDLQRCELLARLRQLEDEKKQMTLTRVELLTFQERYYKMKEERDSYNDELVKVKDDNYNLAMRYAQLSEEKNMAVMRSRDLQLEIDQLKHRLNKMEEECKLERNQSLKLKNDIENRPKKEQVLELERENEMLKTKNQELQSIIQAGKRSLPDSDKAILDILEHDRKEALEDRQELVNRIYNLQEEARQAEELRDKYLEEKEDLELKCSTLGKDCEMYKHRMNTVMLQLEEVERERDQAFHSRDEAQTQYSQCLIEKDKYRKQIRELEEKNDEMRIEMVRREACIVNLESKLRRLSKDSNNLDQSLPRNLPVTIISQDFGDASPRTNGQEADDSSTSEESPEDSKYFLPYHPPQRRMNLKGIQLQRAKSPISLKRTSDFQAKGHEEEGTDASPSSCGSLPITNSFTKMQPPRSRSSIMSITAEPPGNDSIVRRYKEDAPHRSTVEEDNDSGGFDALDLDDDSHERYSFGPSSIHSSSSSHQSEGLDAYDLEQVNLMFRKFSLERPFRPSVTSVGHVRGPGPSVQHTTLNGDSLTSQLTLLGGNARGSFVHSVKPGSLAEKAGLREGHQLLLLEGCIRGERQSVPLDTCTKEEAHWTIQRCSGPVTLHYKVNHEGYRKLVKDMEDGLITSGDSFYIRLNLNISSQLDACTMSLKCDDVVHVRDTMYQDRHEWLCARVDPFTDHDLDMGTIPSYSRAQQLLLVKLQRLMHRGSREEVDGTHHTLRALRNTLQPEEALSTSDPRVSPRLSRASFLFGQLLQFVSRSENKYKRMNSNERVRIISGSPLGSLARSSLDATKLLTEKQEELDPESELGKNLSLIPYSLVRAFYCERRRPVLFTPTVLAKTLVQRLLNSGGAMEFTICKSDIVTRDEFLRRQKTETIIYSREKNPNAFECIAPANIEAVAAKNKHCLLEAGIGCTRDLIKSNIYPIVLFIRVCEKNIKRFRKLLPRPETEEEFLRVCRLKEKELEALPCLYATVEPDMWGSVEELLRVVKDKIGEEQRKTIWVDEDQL

What was measured:
Experiment in all cases: log2 fold change, soluble protein after heating vs DMSO (PISA); higher = thermal stabilisation; K562 lysate, 10 uM; active = over 0.2 and 3.5 SD of the protein, either way, in both replicates (recomputed)
lapatinib = compound: CS(=O)(=O)CCNCc1ccc(-c2ccc3ncnc(Nc4ccc(OCc5cccc(F)c5)c(Cl)c4)c3c2)o1 [lapatinib]
Summary of the method: (§1)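 Pellets of K562 cells were dounce-homogenised in PBS pH 7.4 with 1 mM MgCl2, and the crude extract was held at 1 mg/mL protein for a 30 min treatment with 10 μM compound. Aliquots were heated for 3 min over 48°C-58°C and pooled before NP-40 was added to 0.5% at 4°C. The supernatant from 21,000xg for 90 min was quantified by TMTpro 16plex LC-MS/MS with channel sums equalised. Values are reported from duplicates as log-two fold change in thermal stability relative to solvent controls.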

pictilisib = compound: CS(=O)(=O)N1CCN(Cc2cc3nc(-c4cccc5[nH]ncc45)nc(N4CCOCC4)c3s2)CC1 [pictilisib]
Summary of the method: as §1

crizotinib = compound: C[C@@H](Oc1cc(-c2cnn(C3CCNCC3)c2)cnc1N)c1c(Cl)ccc(F)c1Cl [crizotinib]
Summary of the method: as §1

[1] = compound: C[C@H](C1=CC=C(C=C1)C(=O)NC2=C3C=CNC3=NC=C2)N
Summary of the method: as §1

duvelisib = compound: C[C@H](Nc1ncnc2nc[nH]c12)c1cc2cccc(Cl)c2c(=O)n1-c1ccccc1 [duvelisib]
Summary of the method: as §1

gandotinib = compound: Cc1cc(Nc2cc(CN3CCOCC3)c3nc(C)c(Cc4ccc(Cl)cc4F)n3n2)n[nH]1 [gandotinib]
Summary of the method: as §1

tozasertib = compound: Cc1cc(Nc2cc(N3CCN(C)CC3)nc(Sc3ccc(NC(=O)C4CC4)cc3)n2)n[nH]1 [tozasertib]
Summary of the method: as §1

doramapimod = compound: Cc1ccc(-n2nc(C(C)(C)C)cc2NC(=O)Nc2ccc(OCCN3CCOCC3)c3ccccc23)cc1 [doramapimod]
Summary of the method: as §1

bafetinib = compound: Cc1ccc(NC(=O)c2ccc(CN3CC[C@H](N(C)C)C3)c(C(F)(F)F)c2)cc1Nc1nccc(-c2cncnc2)n1 [bafetinib]
Summary of the method: as §1

[2] = compound: Cc1cccc(CC(=O)N2CCc3c2ccc(-c2cn(C)c4ncnc(N)c24)c3F)n1
Summary of the method: as §1

Row | Target | log2 fold change (lapatinib) | log2 fold change (pictilisib) | log2 fold change (crizotinib) | log2 fold change [1] | log2 fold change (duvelisib) | log2 fold change (gandotinib) | log2 fold change (tozasertib) | log2 fold change (doramapimod) | log2 fold change (bafetinib) | log2 fold change [2]
1 | C1orf52 (UniProt Q8N6N3) | inactive: -0.003 | inactive: 0.04 | inactive: 0.035 | inactive: -0.043 | inactive: 0.009 | inactive: 0.114 | inactive: -0.034 | inactive: -0.04 | inactive: -0.019 | inactive: 0
2 | BUD31 (UniProt P41223) | inactive: 0.026 | inactive: -0.003 | inactive: -0.001 | inactive: 0.155 | inactive: -0.003 | inactive: -0.03 | inactive: 0.034 | inactive: 0.01 | inactive: -0.037 | inactive: -0.068
3 | BUD23 isoform 3 (UniProt O43709) | inactive: 0.052 | inactive: -0.017 | inactive: 0.07 | active: -0.305 | inactive: 0.025 | inactive: 0.136 | inactive: -0.073 | inactive: -0.035 | inactive: -0.088 | inactive: 0.152
4 | CAND2 (UniProt O75155) | inactive: -0.003 | inactive: -0.003 | inactive: -0.016 | inactive: 0 | inactive: 0.002 | inactive: -0.043 | inactive: 0.014 | inactive: 0.004 | inactive: 0 | inactive: 0.035
5 | C7orf25 isoform 2 (UniProt Q9BPX7) | inactive: -0.13 | inactive: -0.092 | inactive: 0.036 | inactive: 0.068 | inactive: 0.039 | inactive: -0.017 | inactive: -0.006 | inactive: 0.059 | inactive: -0.315 | inactive: -0.056
6 | C15orf40 (UniProt Q8WUR7) | inactive: -0.015 | inactive: -0.073 | inactive: 0.003 | inactive: -0.076 | inactive: 0.013 | inactive: 0.095 | inactive: 0.028 | inactive: 0.017 | inactive: -0.041 | inactive: 0.038
7 | C1R (UniProt P00736) | inactive: 0 | – | – | – | – | – | – | – | – | –
8 | CANX isoform 2 (UniProt P27824) | inactive: 0.018 | inactive: 0.037 | inactive: -0.002 | inactive: -0.037 | inactive: 0.015 | inactive: 0.026 | inactive: 0.015 | inactive: 0.006 | inactive: 0.017 | inactive: 0.052
9 | CANX (UniProt D6RHJ3) | inactive: -0.017 | – | – | – | – | – | – | – | – | –
10 | CALR (UniProt K7EJB9) | inactive: -0.107 | – | – | – | – | – | – | – | – | –
11 | CAPZA2 (UniProt P47755) | inactive: 0.001 | inactive: -0.041 | inactive: 0.001 | inactive: 0.027 | inactive: 0.009 | inactive: -0.035 | inactive: 0.015 | inactive: 0 | inactive: 0.043 | inactive: -0.056
12 | C16orf58 (UniProt Q96GQ5) | inactive: -0.006 | inactive: -0.035 | inactive: -0.084 | inactive: 0.034 | inactive: 0.067 | inactive: -0.114 | inactive: 0.066 | inactive: -0.011 | inactive: -0.073 | inactive: 0.122
13 | C3orf38 (UniProt Q5JPI3) | inactive: -0.002 | inactive: -0.032 | inactive: -0.077 | inactive: 0.046 | inactive: -0.022 | inactive: -0.027 | inactive: 0.028 | inactive: -0.056 | inactive: 0.008 | inactive: 0.038
14 | C16orf87 (UniProt Q6PH81) | inactive: -0.021 | inactive: 0.039 | inactive: -0.067 | inactive: 0.252 | inactive: -0.009 | inactive: -0.002 | inactive: -0.192 | inactive: 0.166 | inactive: 0.07 | inactive: 0.033
15 | C12orf65 (UniProt Q9H3J6) | inactive: 0.037 | inactive: 0 | inactive: 0.065 | inactive: 0.03 | inactive: -0.087 | inactive: -0.013 | inactive: -0.053 | inactive: 0.05 | inactive: -0.117 | inactive: 0.063
16 | CALM2 (UniProt P0DP24) | inactive: -0.038 | inactive: -0.128 | inactive: 0.027 | inactive: -0.252 | inactive: 0.086 | inactive: 0.068 | inactive: 0.025 | inactive: -0.064 | inactive: -0.171 | inactive: 0.187
17 | CA1 (UniProt P00915) | inactive: -0.015 | inactive: -0.005 | inactive: 0.001 | inactive: -0.102 | inactive: 0.027 | inactive: 0.04 | inactive: 0.008 | inactive: 0.005 | inactive: 0.011 | inactive: 0.04

Row | Target | log2 fold change (lapatinib) | log2 fold change (pictilisib) | log2 fold change (crizotinib) | log2 fold change [1] | log2 fold change (duvelisib) | log2 fold change (gandotinib) | log2 fold change (tozasertib) | log2 fold change (doramapimod) | log2 fold change (bafetinib) | log2 fold change [2]
18 | CAMKK2 (UniProt Q96RR4) | inactive: -0.018 | inactive: 0.006 | inactive: 0.108 | inactive: 0.023 | inactive: 0.058 | active: 0.257 | inactive: -0.055 | inactive: 0.031 | inactive: 0.018 | inactive: -0.056
19 | C20orf27 isoform 2 (UniProt Q9GZN8) | inactive: -0.06 | inactive: -0.024 | inactive: -0.011 | inactive: 0.006 | inactive: -0.059 | inactive: 0.015 | inactive: -0.008 | inactive: -0.042 | inactive: 0.014 | inactive: -0.114
20 | CAAP1 (UniProt Q9H8G2) | inactive: -0.034 | inactive: 0.016 | inactive: -0.038 | inactive: -0.064 | inactive: 0.085 | inactive: 0.183 | inactive: 0.001 | inactive: 0.091 | inactive: -0.056 | inactive: 0.025
21 | C19orf53 (UniProt Q9UNZ5) | inactive: -0.001 | inactive: 0.007 | inactive: -0.009 | inactive: 0.094 | inactive: -0.043 | inactive: -0.092 | inactive: 0.02 | inactive: 0.009 | inactive: 0.006 | inactive: -0.044
22 | C9orf78 (UniProt Q9NZ63) | inactive: 0.041 | inactive: -0.002 | inactive: 0.058 | inactive: 0.083 | inactive: 0.012 | inactive: -0.002 | inactive: 0.015 | inactive: -0.006 | inactive: 0.066 | inactive: -0.066
23 | CALU isoform 3 (UniProt O43852) | inactive: 0.014 | inactive: 0.024 | inactive: 0.017 | inactive: -0.02 | inactive: 0.003 | inactive: 0.026 | inactive: -0.044 | inactive: -0.03 | inactive: -0.011 | inactive: 0.014
24 | BUB1 (UniProt O43683) | inactive: -0.021 | inactive: 0.04 | inactive: -0.2 | inactive: -0.208 | inactive: 0.001 | inactive: 0.188 | inactive: 0.07 | inactive: 0.016 | inactive: -0.183 | inactive: 0.255
25 | C2CD5 isoform 3 (UniProt Q86YS7) | inactive: -0.031 | inactive: -0.029 | inactive: -0.028 | active: -0.26 | inactive: -0.009 | inactive: 0.125 | inactive: -0.038 | inactive: 0.035 | inactive: -0.056 | active: 0.28
26 | C1orf226 isoform 2 (UniProt A1L170) | inactive: -0.002 | – | – | – | – | – | – | – | – | –
27 | CACYBP (UniProt Q9HB71) | inactive: 0.004 | inactive: 0.012 | inactive: 0.032 | inactive: -0.029 | inactive: 0.018 | inactive: 0.023 | inactive: -0.031 | inactive: -0.012 | inactive: 0.066 | inactive: -0.013
28 | CAMK2G isoform 8 (UniProt Q13555) | inactive: -0.013 | inactive: -0.008 | inactive: -0.177 | inactive: -0.053 | inactive: -0.083 | inactive: 0.085 | inactive: -0.037 | inactive: -0.049 | inactive: 0.001 | inactive: -0.07
29 | CAPN1 (UniProt P07384) | inactive: 0.03 | inactive: 0.018 | inactive: 0.016 | inactive: 0.021 | inactive: 0.004 | inactive: 0.058 | inactive: -0.036 | inactive: 0.119 | inactive: 0.078 | inactive: -0.025
30 | C2orf76 (UniProt Q3KRA6) | inactive: -0.022 | inactive: -0.059 | inactive: -0.025 | inactive: -0.088 | inactive: -0.017 | inactive: 0.05 | inactive: -0.086 | inactive: -0.074 | inactive: 0.027 | inactive: 0.06
31 | CALB2 (UniProt P22676) | inactive: 0.009 | inactive: -0.07 | inactive: 0.01 | inactive: -0.041 | inactive: 0.031 | inactive: 0.092 | inactive: 0.056 | inactive: 0.003 | inactive: 0.082 | inactive: -0.007
32 | C1orf198 (UniProt Q9H425) | inactive: 0.034 | inactive: 0.005 | inactive: -0.002 | inactive: -0.098 | inactive: -0.03 | inactive: 0.138 | inactive: -0.021 | inactive: 0.083 | inactive: -0.048 | inactive: 0.046
33 | CARD11 (UniProt Q9BXL7) | inactive: 0.001 | active: -0.287 | inactive: -0.018 | inactive: -0.025 | inactive: 0.029 | inactive: -0.035 | inactive: -0.021 | inactive: 0.028 | inactive: -0.059 | inactive: 0.038

Retrieved one by one from the entries so far (two):
Row | Target | log2 fold change (lapatinib) | log2 fold change (pictilisib) | log2 fold change (crizotinib) | log2 fold change [1] | log2 fold change (duvelisib) | log2 fold change (gandotinib) | log2 fold change (tozasertib) | log2 fold change (doramapimod) | log2 fold change (bafetinib) | log2 fold change [2]
30 | C2orf76 (UniProt Q3KRA6) | inactive: -0.022 | inactive: -0.059 | inactive: -0.025 | inactive: -0.088 | inactive: -0.017 | inactive: 0.05 | inactive: -0.086 | inactive: -0.074 | inactive: 0.027 | inactive: 0.06
4 | CAND2 (UniProt O75155) | inactive: -0.003 | inactive: -0.003 | inactive: -0.016 | inactive: 0 | inactive: 0.002 | inactive: -0.043 | inactive: 0.014 | inactive: 0.004 | inactive: 0 | inactive: 0.035
